{"sequences": {"note": "Sequences of proteins named here, by UniProt entry; tags and fusion partners are left off. Residues count along the entry.", "UniProt Q9H0Q3, residues 19-95": "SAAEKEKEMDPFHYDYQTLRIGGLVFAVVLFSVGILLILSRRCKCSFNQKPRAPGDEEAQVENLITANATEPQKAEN"}, "source": "paper PMC9458724", "target": "human α3 subunit of the Na+/K+-ATPase, wild type, Flag-tagged (human) (UniProt P13637)", "test": "cryo-EM structure; α3/β1/FXYD6 complex co-expressed in HEK 293F cells and co-purified by the Flag tag on α3 and size exclusion chromatography, in 0.06% digitonin, 20 mM HEPES pH 7.4, 150 mM NaCl or KCl; 4 mg/ml on grids; wild type trapped with ADP-AlF4- (E1•P-ADP) or MgF4 2- (E2•Pi); 4A mutant alone (E1), with AMPPCP (E1•ATP) or BeF3- (E2P); both purified", "note": "These are yes or no findings as the source states them, for the method shown. Some entries that bind do so weakly or less than the wild type.", "data": [{"substance": "human FXYD6 (from UniProt Q9H0Q3 19-95)", "values": [{"measurement": "binding", "value": "binds"}]}]}
